Experimental data from patent publication US20240141061A1, “NOVEL ANTIBODY AGAINST CD55 AND USE THEREOF” (SG MEDICAL INC, priority 2021, published 2024).
Results are given in words; binding and its absence hold for the method and conditions named. Some binding calls cover weakened binding; strength is not graded here.

Chains of the proteins cited; added tags and fusions are not shown. Residues count along the entry.
UniProt P08174, residues 35-353: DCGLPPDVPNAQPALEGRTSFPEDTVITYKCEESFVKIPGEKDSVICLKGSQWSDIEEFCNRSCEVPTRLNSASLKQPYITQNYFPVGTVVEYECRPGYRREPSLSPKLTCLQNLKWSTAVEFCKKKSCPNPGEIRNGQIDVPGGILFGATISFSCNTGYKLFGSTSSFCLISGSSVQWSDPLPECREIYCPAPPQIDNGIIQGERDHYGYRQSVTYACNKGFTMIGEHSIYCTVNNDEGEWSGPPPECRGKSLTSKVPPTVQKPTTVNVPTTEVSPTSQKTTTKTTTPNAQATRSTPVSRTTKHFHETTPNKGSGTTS

Target: recombinant human CD55 (R&D Systems 2009-CD/CF) (human) (UniProt P08174)
Assay: indirect ELISA, recombinant human CD55 coated

Row | Binder | binding
1 | 10H(L) (antibody, V domains shown) VH: EVQLAESGGGLVQPGGSLRLSCAASGFTFSDRGMAWVRQAPGKGLEWVSGISSSGRYTYYAPAVKGRATISRDNSKNTLYLQMNSLRAEDTAVYYCAKNALAGGWHAAYIDAWGQGTTVTVSS VL: SYELTQPPSVSVSPGQTASITCSGGGGSYGWYQQKPGQSPVTVIYWNDKRPSGIPERFSGSKSGNTATLTISGTQAMDEADYYCGGWDSSTYAIFGGGTKLTVL | binds
2 | 10H(M) (antibody, V domains shown) VH: EVQLAESGGGLVQPGGSLRLSCAASGFTFSDRGMAWVRQAPGKGLEWVSGISSSGRYTYYAPAVKGRATISRDNSKNTLYLQMNSLRAEDTAVYYCAKNAMAGGWHAAYIDAWGQGTTVTVSS VL: SYELTQPPSVSVSPGQTASITCSGGGGSYGWYQQKPGQSPVTVIYWNDKRPSGIPERFSGSKSGNTATLTISGTQAMDEADYYCGGWDSSTYAIFGGGTKLTVL | binds
3 | 10H(F) (antibody, V domains shown) VH: EVQLAESGGGLVQPGGSLRLSCAASGFTFSDRGMAWVRQAPGKGLEWVSGISSSGRYTYYAPAVKGRATISRDNSKNTLYLQMNSLRAEDTAVYYCAKNAFAGGWHAAYIDAWGQGTTVTVSS VL: SYELTQPPSVSVSPGQTASITCSGGGGSYGWYQQKPGQSPVTVIYWNDKRPSGIPERFSGSKSGNTATLTISGTQAMDEADYYCGGWDSSTYAIFGGGTKLTVL | binds
